Measurements reported in patent US12168003B2, “Selective inhibition of T follicular helper cells for treatment of autoimmune disorders” (priority 2019, dated 2024).

Tested on: CD4+ T cells
Experiment: Polysome profiling and RNA sequencing of CD4+ T cells from OVA/Alum immunized mice
Type: in vivo, mouse
[1] = 25 mg/kg 4EGI-1, OVA/alum, CD4+ T cells
[2] = compared with TFH cell transcriptome of Johnston et al.

SMILES: O=C(O)C(Cc1ccccc1[N+](=O)[O-])=NNc1nc(-c2ccc(Cl)c(Cl)c2)cs1 (mixture of isomers) [4EGI-1]
- share of mRNAs changed in abundance or translation in CD4+ T cells (25 mg/kg 4EGI-1, OVA/alum): ~4%
- mRNAs altered in both transcription and translation [1]: 64 mRNAs
- mRNAs altered in translation alone without a change in abundance [1]: 667 mRNAs
- mRNAs significantly altered in abundance and not translation activity (transcription alone) [1]: 641 mRNAs
- share of changed mRNAs reduced in abundance [1]: 61%
- share of changed mRNAs reduced in translation [1]: 79%
- TFH-enriched mRNAs (both datasets) downregulated by 4EGI-1, regulated in transcription alone [2]: 18 mRNAs
- TFH-enriched mRNAs downregulated by translation alone with eIF4E inhibition [2]: 40 mRNAs
